Reference: PubChem BioAssay AID1347076 (National Center for Advancing Translational Sciences (NCATS), 2019)
Screen size: about 400,000 compounds; about 13,000 (3.2%) were called active. Inconclusive results, whose numbers are uncertain, are shown with a selection of clear calls. Calls come from the whole dose curve; as a rule, active = well fitted cell-killing curve with a large enough effect; inconclusive = small, poorly fitted or top-dose-only effect, or effect the other way; inactive = flat fitted curve, though single readings scatter. Potencies beside an inconclusive call are fits to weak or partial responses and may not hold up.

Assay: qHTS assay for MDR1-selective chemotherapeutics: Primary screen using the drug-selected MDR subline cells KB-V1; note: nearly all actives have a fitted effect of over 60% in size
Settings: KB-V1 MDR cells viability, CellTiter-Glo, 72 h; activity change, negative = cytotoxicity: at 46.1 µM (top of the series)
Summary of the method: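 qHTS viability screen in drug-selected KB-V1 MDR cells: 72 h compound treatment at 37 degrees C, ATP luminescence end point.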
% is set by controls: 0 for no effect and ±100 for the full control effect; potency is the fitted concentration of half-maximal effect.

**Q.** Which Potency does the source give for `CC(C)(C)OC(=O)Cn1c(=O)cnc2ccccc21` here?
**A.** inconclusive: 14.6 µM [rising, partial curve]

**Q.** For `N#CC1=C(N)Nc2ncnn2C1c1ccc(F)cc1` (centres undefined), which activity change, negative = cytotoxicity is on record?
**A.** inconclusive: 42.9%

**Q.** Which Potency does the source give for `CCC(CC)NC(=O)CCCSc1nc2ccccc2[nH]1` here?
**A.** inconclusive: 16.4 µM [cytotoxic, single point]

**Q.** For `CCOC(=O)[C@]12CCC=C1N(Cc1ccc(Cl)cc1Cl)C(=O)[C@H](CC(=O)NCc1cccs1)C2`, which Potency is on record?
**A.** inconclusive: 5.8 µM [cytotoxic, partial curve]

**Q.** With `Nc1ccccc1C(=O)N/N=C1\C2CN3CCN(C2)CC1(c1ccccc1)C3` as the compound, how does the Potency read?
**A.** inconclusive: 29.1 µM [rising, single point]

**Q.** With `Cc1cc(C(=O)Nc2ccccc2Cl)c2ccccc2n1` as the compound, how does the Potency read?
**A.** inconclusive: 11.6 µM [cytotoxic, partial curve]

**Q.** For `CCCn1cc(S(=O)(=O)c2ccc(F)cc2)c(=O)c2cc(OCC)ccc21`, which Potency is on record?
**A.** inconclusive: 3.66 µM [cytotoxic, full curve]

**Q.** For `OC(CNC1CCCCC1)CON=C1CCSc2c(Cl)cccc21` (centres undefined), which Potency is on record?
**A.** inactive

**Q.** Which Potency does the source give for `CCc1ccc(S(=O)(=O)/N=C2\C=C(Nc3ccc(O)cc3)C(=O)c3ccccc32)cc1` here?
**A.** inconclusive: 32.6 µM [cytotoxic, single point]

**Q.** Which Potency does the source give for `Cc1ccc(S(=O)(=O)N2CCN(Cc3ccccc3C(F)(F)F)CC2)cc1` here?
**A.** inconclusive: 18.4 µM [cytotoxic, partial curve]

**Q.** For `c1ccc(COc2ncnc3c2ncn3CCCNCc2cccs2)cc1`, which Potency is on record?
**A.** inconclusive: 9.2 µM [cytotoxic, partial curve, poor fit]

**Q.** For `O=C1OC(c2ccccc2)=C/C1=C\N1CCOCC1`, which Potency is on record?
**A.** inconclusive: 29.1 µM [cytotoxic, single point]

**Q.** With `COc1ccc(C(CNC(=O)c2cccc(S(=O)(=O)Nc3ccc(F)cc3)c2)N2CCCCC2)cc1` (centres undefined) as the compound, how does the Potency read?
**A.** inactive

**Q.** With `O=C(c1ccccc1)c1ccc(C(=O)N2CCN(c3ccccc3O)CC2)cc1` as the compound, how does the Potency read?
**A.** inactive

**Q.** For `C(=NN=C(NN=Cc1cccs1)NN=Cc1cccs1)c1cccs1`, which Potency is on record?
**A.** inconclusive: 23.1 µM [cytotoxic, single point]

**Q.** Which Potency does the source give for `CC1(C(=O)NS(=O)(=O)c2ccc3ccccc3c2)CCN1C(=O)Cc1ccc(-c2ccccc2)cc1` (centres undefined) here?
**A.** inactive

**Q.** With `CC1CCCC/C1=N\NC(=S)NCCc1ccccc1` (centres undefined) as the compound, how does the Potency read?
**A.** inconclusive: 29.1 µM [rising, single point]

**Q.** Which Potency does the source give for `COc1ccc(CN2C(=O)C(CC(=O)NCCCCc3ccccc3)CC(C(=O)N3CCCCCC3)=C2C)cc1` (centres undefined) here?
**A.** inactive

**Q.** Which Potency does the source give for `O=C(Nc1ccc(F)c(Cl)c1)C1CCN(S(=O)(=O)c2cccnc2)CC1` here?
**A.** inconclusive: 10.3 µM [cytotoxic, partial curve]

**Q.** Which Potency does the source give for `O=C(O)c1ccccc1SCC(=O)N1CCOCC1` here?
**A.** inconclusive: 4.11 µM [rising, full curve, poor fit]

**Q.** Which Potency does the source give for `NC(=S)N/N=C1/CCSc2ccc3ccccc3c21` here?
**A.** inconclusive: 23.1 µM [cytotoxic, single point]

**Q.** With `Cn1ncc([N+](=O)[O-])c1C(=O)Nc1ccn(Cc2ccccc2F)n1` as the compound, how does the Potency read?
**A.** inconclusive: 29.1 µM [cytotoxic, single point]

**Q.** For `COc1ccc(/C(C)=N/OCC(=O)Nc2nc3ccccc3s2)cc1`, which Potency is on record?
**A.** inconclusive: 23.1 µM [cytotoxic, single point]

**Q.** Which Potency does the source give for `Cc1cccc(-c2cc(C(=O)Nc3c(C)n(C)n(-c4ccccc4)c3=O)c3ccccc3n2)c1` here?
**A.** inconclusive: 11.6 µM [cytotoxic, single point]

**Q.** For `CCOC(=O)C1=NN(c2ccc(C)cc2)C2(S1)SC(C(C)=O)=C(C)N2c1ccccc1` (centres undefined), which Potency is on record?
**A.** inconclusive: 20.6 µM [cytotoxic, single point]

**Q.** Which Potency does the source give for `C=CC[C@@H](CC(=O)N[C@@H](CO)Cc1ccccc1)C(=O)N[C@H](COC(=O)[C@@H](CC=C)Cc1ccc(F)cc1)Cc1ccccc1` here?
**A.** inactive

**Q.** For `Cn1c(-c2ccc(F)cc2)cnc1SCC(=O)NCc1ccco1`, which Potency is on record?
**A.** inactive

**Q.** Which Potency does the source give for `CCN(CC)c1ccc(NC(=O)CCS(=O)(=O)c2cccc3nsnc23)c(C)c1` here?
**A.** inconclusive: 13 µM [cytotoxic, partial curve]

**Q.** Which Potency does the source give for `O=C(Nc1c2c(nn1-c1ccccc1)CS(=O)C2)c1ccc2c(c1)OCO2` (centres undefined) here?
**A.** inactive

**Q.** Which Potency does the source give for `Cc1csc(NC(=O)c2nc(-c3ccccc3)n(-c3ccccc3)n2)n1` here?
**A.** active: 10.3 µM

**Q.** For `COc1ccc(C(=O)NCC(c2cccnc2)N2CCc3ccccc3C2)cc1` (centres undefined), which Potency is on record?
**A.** inconclusive: 3.26 µM [cytotoxic, partial curve, poor fit]

**Q.** Which Potency does the source give for `CCCCCC(=O)Nc1ccc(C(=O)CN2C(=O)NC3(CCCCCC3)C2=O)cc1` here?
**A.** inactive

**Q.** With `Cc1ccc(S(N)(=O)=O)c(C)c1-n1cnnn1` as the compound, how does the Potency read?
**A.** inactive

**Q.** For `Cc1ccc(CNC(=O)C2CCN(c3nn4cc(-c5ccc(F)cc5)nc4s3)CC2)cc1`, which Potency is on record?
**A.** inactive

**Q.** With `COc1ccc(Cl)cc1S(=O)(=O)N(C)CC(=O)NCc1ccccn1` as the compound, how does the Potency read?
**A.** inactive

**Q.** For `COc1ccc(NC(=O)C2CCCN(c3cc(C)nc4ncnn34)C2)cc1` (centres undefined), which Potency is on record?
**A.** inconclusive: 16.4 µM [cytotoxic, partial curve, poor fit]

**Q.** For `O=C(NCCCn1ccnc1)/C(=C\c1cccnc1)NC(=O)c1ccco1`, which Potency is on record?
**A.** inconclusive: 29.1 µM [cytotoxic, single point]

**Q.** With `Cc1onc(-c2ccccc2)c1C(=O)c1c[nH]c(C(=O)NCc2ccccn2)c1` as the compound, how does the Potency read?
**A.** inconclusive: 20.6 µM [cytotoxic, partial curve]

**Q.** Which Potency does the source give for `O=C(OCc1ccccc1)c1cc(S(=O)(=O)N2CCCCC2)ccc1N1CCOCC1` here?
**A.** inconclusive: 5.8 µM [cytotoxic, partial curve]

**Q.** With `Cc1ccc(-c2nnc(SCC(N)=O)nc2-c2ccc(C)cc2)cc1` as the compound, how does the Potency read?
**A.** inactive

**Q.** Which Potency does the source give for `CC(OC(=O)c1nc(-c2ccccc2)n(-c2ccccc2)n1)C(=O)Nc1cc(Cl)cc(Cl)c1` (centres undefined) here?
**A.** inactive

**Q.** Which Potency does the source give for `Cc1cc(NC(=O)c2cc(-c3ccncc3)nc3c(C)cccc23)no1` here?
**A.** active: 3.66 µM

**Q.** With `O=C1C2C3C=CC(CNS(=O)(=O)c4ccccc4[N+](=O)[O-])(O3)C2C(=O)N1c1ccccc1` (centres undefined) as the compound, how does the Potency read?
**A.** inconclusive: 29.1 µM [cytotoxic, single point]

**Q.** With `CC(C)C(C(=O)NCc1ccccc1)N1CCN(c2ccccc2F)CC1` (centres undefined) as the compound, how does the Potency read?
**A.** inconclusive: 14.6 µM [cytotoxic, partial curve, poor fit]
